Laboratory results published in article PMC2680859.
These are yes or no findings as the source states them, for the method shown. Binding seen in cells or lysates may run through a third protein. These calls come from enrichment with a bait or labelling near it, and not all partners need be listed.

B1: RpS3A (protein, UniProt P55830 1-268)
chain: MAVGKNKGLSKGGKKGGKKKVVDPFSRKDWYDVKAPNMFQTRQIGKTLVNRTQGQRIASDYLKGRVFEVSLADLQKDIDPERSFRKFRLIAEDVQDRNVLCNFHGMDLTTDKYRSMVKKWQTLIEAIVEAKTVDGYLLRVFCIGFTAKDQQSQRKTCYAQQSQVRKIRARMTDIITNEVSGADLKQLVNKLALDSIAKDIEKSCQRIYPLHDVYIRKVKVLKKPRFDVSKLLELHGDGGGKSVEAVVSSEGAVIDRPEGYEPPVQEAV
B2: RpS4 (protein, UniProt P41042 1-261)
chain: MARGPKKHLKRLAAPKAWMLDKLGGVFAPRPSTGPHKLRESLPLLIFLRNRLKYALNGAEVTKIVMQRLVKVDGKVRTDPTYPAGYMDVITLEKTGEFFRLVYDVKGRFVIHRISAEEAKYKLCKVKKTQLGAKGVPFLVTHDGRTIRYPDPLIHANDSVQVDIASGKITDYIKFDSGNLCMITGGRNLGRVGTVVNRERHPGSFDIVHIKDSQGHVFATRLTNVFIIGKGNKPYISLPKGKGVKLSIAEERDKRLAAKTH
B3: Hrp59 (protein, UniProt Q9VHB6 1-327)
chain: MEMQLGAMLYVYKGEYGLPSIDFECLRALCLLRFTRCPMDVQTSSNPLRSGAGKLPYLQIGNQKFAGYRQIKRVLDLEGYPIDAHLSTKQKHLSTAYANWVFTNLHAYYHYFLFGEPHNFDTTTRGLYAKRTPFPFNFYYPSSYQREACDVVQVMAGFDVNDKLDKHEGDYLVVNAKKVVNLLSRKLGRKVWFFGDTYSEFDAIVYSYLAIIFKIALPNNPLQNHIKGCQNLVNFINRITKDIFRIEGYSSVKLTKTPSGTEASLTASERKFLDSELNTKIVAGVGAVLAMGAFAAWRGIYNQLTTRSSTDYDGIDYEDDEMEEGLD
B4: Argonaute 2 (protein, UniProt Q9VUQ5 1-1214)
chain: MGKKDKNKKGGQDSAAAPQPQQQQKQQQQRQQQPQQLQQPQQLQQPQQLQQPQQQQQQQPHQQQQQSSRQQPSTSSGGSRASGFQQGGQQQKSQDAEGWTAQKKQGKQQVQGWTKQGQQGGHQQGRQGQDGGYQQRPPGQQQGGHQQGRQGQEGGYQQRPPGQQQGGHQQGRQGQEGGYQQRPSGQQQGGHQQGRQGQEGGYQQRPPGQQQGGHQQGRQGQEGGYQQRPSGQQQGGHQQGRQGQEGGYQQRPPGQQQGGHQQGRQGQEGGYQQRPPGQQQGGHEQGRQGQEGGYQQRPSGQQQGGHQQGRQGQEGGYQQRPSGQQQGGHQQGRQGQEGGYQQRPSGQQQGGHQQGRQGQEGGYQQRPPGQQPNQTQSQGQYQSRGPPQQQQAAPLPLPPQPAGSIKRGTIGKPGQVGINYLDLDLSKMPSVAYHYDVKIMPERPKKFYRQAFEQFRVDQLGGAVLAYDGKASCYSVDKLPLNSQNPEVTVTDRNGRTLRYTIEIKETGDSTIDLKSLTTYMNDRIFDKPMRAMQCVEVVLASPCHNKAIRVGRSFFKMSDPNNRHELDDGYEALVGLYQAFMLGDRPFLNVDISHKSFPISMPMIEYLERFSLKAKINNTTNLDYSRRFLEPFLRGINVVYTPPQSFQSAPRVYRVNGLSRAPASSETFEHDGKKVTIASYFHSRNYPLKFPQLHCLNVGSSIKSILLPIELCSIEEGQALNRKDGATQVANMIKYAATSTNVRKRKIMNLLQYFQHNLDPTISRFGIRIANDFIVVSTRVLSPPQVEYHSKRFTMVKNGSWRMDGMKFLEPKPKAHKCAVLYCDPRSGRKMNYTQLNDFGNLIISQGKAVNISLDSDVTYRPFTDDERSLDTIFADLKRSQHDLAIVIIPQFRISYDTIKQKAELQHGILTQCIKQFTVERKCNNQTIGNILLKINSKLNGINHKIKDDPRLPMMKNTMYIGADVTHPSPDQREIPSVVGVAASHDPYGASYNMQYRLQRGALEEIEDMFSITLEHLRVYKEYRNAYPDHIIYYRDGVSDGQFPKIKNEELRCIKQACDKVGCKPKICCVIVVKRHHTRFFPSGDVTTSNKFNNVDPGTVVDRTIVHPNEMQFFMVSHQAIQGTAKPTRYNVIENTGNLDIDLLQQLTYNLCHMFPRCNRSVSYPAPAYLAHLVAARGRVYLTGTNRFLDLKKEYAKRTIVPEFMKKNPMYFV

What follows are binders tested against HA-tagged Zn72D (Drosophila) (assay: affinity purification with mass spectrometry; large scale IP: 45 mg clarified S2 cell extract (cells expressing HA-Zn72D; wild-type S2 cells as control) on protein G Dynabeads with HA.11 antibody; lysis buffer 50 mM Tris pH 7.4, 150 mM NaCl, 1 mM EDTA, 0.1% TritonX-100; overnight at 4 degrees C; SDS-PAGE, in-gel digestion, LC-MS-MS).
With B1 the binding was “binds”. B2 was tested, and the binding was “binds”. B3 was tested, and the binding was “binds”. In the case of B4, the binding is reported as “binds”.
